Details: in words

SMILES: CC(C)c1c(C(=O)Nc2ccccc2)c(-c2ccccc2)c(-c2ccc(F)cc2)n1CC[C@@H](O)C[C@@H](O)CC(=O)O [Atorvastatin]
- Effect on the metabolism of rapamycin (rapamycin levels in combination cohorts): did not significantly affect the metabolism of rapamycin
